# Experimental data from patent publication US20050095240A1, “NaCT as a target for lifespan expansion and weight reduction” (Medical College of Georgia Research, priority 2002, published 2005).
# The chains behind the UniProt entries cited, without tags or fusion partners. Where a name states a change or a piece, a line headed by the entry shows the natural chain unless it says otherwise.
# UniProt Q86YT5: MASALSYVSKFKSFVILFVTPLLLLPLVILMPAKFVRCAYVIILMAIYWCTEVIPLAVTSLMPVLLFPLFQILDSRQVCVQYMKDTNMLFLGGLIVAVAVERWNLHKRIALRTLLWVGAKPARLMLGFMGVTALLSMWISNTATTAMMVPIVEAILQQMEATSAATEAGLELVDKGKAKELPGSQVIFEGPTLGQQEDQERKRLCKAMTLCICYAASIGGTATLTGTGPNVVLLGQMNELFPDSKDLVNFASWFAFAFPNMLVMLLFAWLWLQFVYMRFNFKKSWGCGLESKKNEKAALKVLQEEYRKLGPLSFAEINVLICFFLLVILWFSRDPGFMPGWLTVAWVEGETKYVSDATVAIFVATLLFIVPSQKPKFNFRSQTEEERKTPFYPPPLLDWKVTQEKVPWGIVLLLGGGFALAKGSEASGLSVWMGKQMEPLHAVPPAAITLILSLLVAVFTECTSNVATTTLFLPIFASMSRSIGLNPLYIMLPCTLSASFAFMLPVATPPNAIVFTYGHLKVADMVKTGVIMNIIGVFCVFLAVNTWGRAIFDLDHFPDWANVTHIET
# At least one compound was matched to its structure with a doubt left.
# Target: T1, NaCT in HepG2 cells (Homo sapiens, UniProt Q86YT5)
# T1 construct: the effect of Li^+ on constitutively expressed NaCT in human liver cells was studied; host or cells: HepG2
# Assay: Citrate uptake in HepG2 cells (constitutively expressed NaCT)
# Type: cell-based
# Details: Li+ 2 mM, valproate 0.6 μM, carbamazepine 50 μM
# Procedure: Uptake measurement in human liver cell lines. The human liver cell lines (HepG2 and Huh-7) were cultured to confluency in 24-well culture plates using appropriate culture medium. The HepG2 cell line was obtained from American Type Culture Collection (Manasses, Va.). The Huh-7 cell line (Bode et al., (2002) Am. J. Physiol. 283, G1062-G1073) was provided by Dr. Barrie P. Bode (St. Louis University, St. Louis, Mo.). Uptake measurements in monolayer cultures of these cells were measured as described above for the heterologously expressed NaCTs.
smiles,measurement,value
"CCCC(CCC)C(=O)O [Valproate, valproate]","Citrate uptake, HepG2 cells",9.9 ± 0.3 pmol/min/mg protein
